These results are taken from publication PMC2965147.

Test [1] deals with wild-type synphilin-1 (UniProt Q9Y6H5). Description: SDS-PAGE and Western blot of detergent-resistant membrane fractions (band size); yeast lysates in TNE buffer, 0.2% Triton X-100 on ice for 30 min, flotation on an OptiPrep gradient, nine fractions TCA-precipitated and blotted for synphilin-1; wild-type BY4741 and erg24Δ strains, with or without co-expressed α-Syn-EGFP. For orientation: A western blot detects proteins with antibodies after separation by electrophoresis.

Test [2] concerns the target synphilin-1 R621C mutant (UniProt Q9Y6H5). The test is described as above.
Test [3] deals with endogenous mouse synphilin-1 (mouse (endogenous in primary cortical neurons)) (UniProt Q99ME3). Description: SDS-PAGE and Western blot of detergent-resistant membrane fractions (band size); lysates of 11 DIV mouse primary neuronal cultures in TBS with 1% Triton X-100 on ice for 30 min, sucrose gradient, eight fractions TCA-precipitated and blotted for synphilin-1.

These are yes or no findings as the source states them, for the method shown. Some entries that bind do so weakly or less than the wild type.

B1: wild-type synphilin-1 (protein, UniProt Q9Y6H5 1-919)
chain: MEAPEYLDLDEIDFSDDISYSVTSLKTIPELCRRCDTQNEDRSVSSSSWNCGISTLITNTQKPTGIADVYSKFRPVKRVSPLKHQPETLENNESDDQKNQKVVEYQKGGESDLGPQPQELGPGDGVGGPPGKSSEPSTSLGELEHYDLDMDEILDVPYIKSSQQLASFTKVTSEKRILGLCTTINGLSGKACSTGSSESSSSNMAPFCVLSPVKSPHLRKASAVIHDQHKLSTEETEISPPLVKCGSAYEPENQSKDFLNKTFSDPHGRKVEKTTPDCQLRAFHLQSSAAESKPEEQVSGLNRTSSQGPEERSEYLKKVKSILNIVKEGQISLLPHLAADNLDKIHDENGNNLLHIAASQGHAECLQHLTSLMGEDCLNERNTEKLTPAGLAIKNGQLECVRWMVSETEAIAELSCSKDFPSLIHYAGCYGQEKILLWLLQFMQEQGISLDEVDQDGNSAVHVASQHGYLGCIQTLVEYGANVTMQNHAGEKPSQSAERQGHTLCSRYLVVVETCMSLASQVVKLTKQLKEQTVERVTLQNQLQQFLEAQKSEGKSLPSSPSSPSSPASRKSQWKSPDADDDSVAKSKPGVQEGIQVLGSLSASSRARPKAKDEDSDKILRQLLGKEISENVCTQEKLSLEFQDAQASSRNSKKIPLEKRELKLARLRQLMQRSLSESDTDSNNSEDPKTTPVRKADRPRPQPIVESVESMDSAESLHLMIKKHTLASGGRRFPFSIKASKSLDGHSPSPTSESSEPDLESQYPGSGSIPPNQPSGDPQQPSPDSTAAQKVATSPKSALKSPSSKRRTSQNLKLRVTFEEPVVQMEQPSLELNGEKDKDKGRTLQRTSTSNESGDQLKRPFGAFRSIMETLSGNQNNNNNYQAANQLKTSTLPLTSLGRKTDAKGNPASSASKGKNKAA
Take B1: in test [1], the binding entry was “binds”.

B2: synphilin-1 R621C mutant (protein, UniProt Q9Y6H5 1-919)
chain: MEAPEYLDLDEIDFSDDISYSVTSLKTIPELCRRCDTQNEDRSVSSSSWNCGISTLITNTQKPTGIADVYSKFRPVKRVSPLKHQPETLENNESDDQKNQKVVEYQKGGESDLGPQPQELGPGDGVGGPPGKSSEPSTSLGELEHYDLDMDEILDVPYIKSSQQLASFTKVTSEKRILGLCTTINGLSGKACSTGSSESSSSNMAPFCVLSPVKSPHLRKASAVIHDQHKLSTEETEISPPLVKCGSAYEPENQSKDFLNKTFSDPHGRKVEKTTPDCQLRAFHLQSSAAESKPEEQVSGLNRTSSQGPEERSEYLKKVKSILNIVKEGQISLLPHLAADNLDKIHDENGNNLLHIAASQGHAECLQHLTSLMGEDCLNERNTEKLTPAGLAIKNGQLECVRWMVSETEAIAELSCSKDFPSLIHYAGCYGQEKILLWLLQFMQEQGISLDEVDQDGNSAVHVASQHGYLGCIQTLVEYGANVTMQNHAGEKPSQSAERQGHTLCSRYLVVVETCMSLASQVVKLTKQLKEQTVERVTLQNQLQQFLEAQKSEGKSLPSSPSSPSSPASRKSQWKSPDADDDSVAKSKPGVQEGIQVLGSLSASSRARPKAKDEDSDKILCQLLGKEISENVCTQEKLSLEFQDAQASSRNSKKIPLEKRELKLARLRQLMQRSLSESDTDSNNSEDPKTTPVRKADRPRPQPIVESVESMDSAESLHLMIKKHTLASGGRRFPFSIKASKSLDGHSPSPTSESSEPDLESQYPGSGSIPPNQPSGDPQQPSPDSTAAQKVATSPKSALKSPSSKRRTSQNLKLRVTFEEPVVQMEQPSLELNGEKDKDKGRTLQRTSTSNESGDQLKRPFGAFRSIMETLSGNQNNNNNYQAANQLKTSTLPLTSLGRKTDAKGNPASSASKGKNKAA
Take B2: the binding result in test [2] is given as “binds”.

B3: endogenous mouse synphilin-1 (protein, UniProt Q99ME3 1-962)
chain: MEAPEYLDLDEIDFSDDISYSVTSLKTIPALCRRCDSQNEDRSVSSSGWNCGVSTLITNPQKPTGIADVYSKFRPVKRVSPLKHQPETLENNENEDQKNNTVEYQKGGETDQGPQPEELSPEDGVGGLPGKGSEPSQALGELEHYDLDMDEILDVPYIKSSQQLAPLTKVTSEKRILGLCTTINGLSAKTCPIASTENSTPNMTPFCVLSPVKSPHLRKAPTALRDQHKLSTEDSESSPALGKCGPAYESENHSKDFLNKVFSDPHSRKIEKSGPDCKLRSFHLQSSAAGAKTEEPINGMNWTNTQGTEERTEYLKKVRSILNIVNEGQISLLPHLAADNLDKIHDENGNNLLHIAASKGHAECLQHLTSLMGEDCLNERNTEQLTPAGLAIKNGQLECVRWMVSETEAIAELSCSKDFPSLIHYAGCYGQEKILLWLLQFMQEQGISLDEVDREGNSAVHVASQHGYLGCIQTLVEYGANVTMQNHAGEKPSQSAERHGHTLCSRYLVVVETCMSLASQVVKLTKQLKEQTVERVTLQSQLQQLLEAQKSEGKSLPSSPSSPSSPASTKSQWKALDTDEESTGKSKVGAQEGIQVLGSLSVSSRARTKGKDEDSDKILRQLLGKEISENVCTQEKLSLEFQDAQASSRNSKKIPLEKRELKLARLRQLMQRSLSESDTDSNNSEDPKNTPVKRADRPRPQPIVESVENVDSAESLHLMIKKHSLASGRRFPFGMKASKSLDGHSPSPTSESSEPDLDSHGPGLGMTPPTQPSTEATQSSPDSTAAQKVATSPKSALKSPSSKRRTSQNSKLRVTFEEPVVQMEQTGLELNGEKDKDKGRAPQRTSESGEQMKRPFGTFRSIMESLSGNQNNNNNYQPASQLKTCTLPLTSLGRKTADAKGNPVSPASKGKNKAAMYSSCIHLPSNALVEEHLRDYARHNDIKRNATKTYHMKHTAEPEPRE
In the case of B3, the binding entry in test [3] was “no binding”.
